From patent US10238689B2, “Methods for combating bacterial infections by killing persister cells with mitomycin C and/or cisplatin” (THE PENN STATE RESEARCH FOUNDATION, priority 2015, dated 2019)

What was measured:
[1] = test system: gDNA (rrsG and murB) of E. coli K-12 BW25113/pCA24N; test: qPCR of gDNA crosslinking in cells (in vivo); format: cell-based, Escherichia coli; settings: MMC 100 μg/mL 1 h
Protocol: Overnight cultures (16 h) of E. coli K-12 BW25113/pCA24N grown in LB were diluted 1:1000 in buffered LB and grown to the desired turbidity. For exponential phase cells (i.e., non-persisters), cultures were grown to a turbidity of 2.0 at 600 nm. For rifampicin-induced persisters, cultures were grown to a turbidity of 0.8 at 600 nm, exposed to rifampicin (100 μg/mL) for 30 min, centrifuged, and resuspended in fresh medium to remove the rifampicin. Non-persister and rifampicin-induced persister cultures were treated with MMC (100 μg/mL) for 1 h. gDNA was extracted, using an UltraClean Microbial DNA Isolation Kit (MO BIO Laboratories, Carlsbad, Calif., USA), from samples taken before and after MMC treatment and 100 ng of DNA was used for qPCR of rrsG and murB using the GoTaq qPCR Master Mix (Promega, Madison, Wis., USA) and the StepOne Real-Time PCR System (Applied Biosystems, Foster City, Calif., USA) (primers are shown in Table 2). As a positive control, 3 μg of gDNA from BW25113 non-persisters was crosslinked in vitro with 500 μg/mL (1.5 mM) MMC in 0.2 mM EDTA, 50 mM NaCl, and 5 mM Tris (pH=7.6) with Na2S2O4 added six times at 10 min intervals to reach a final concentration of 2.25 mM (1.5× molarity of MMC). The in vitro crosslinking reaction was performed anaerobically on ice and the reaction was stopped by exposure to air.

[2] = test system: gDNA (rrsG and murB) from BW25113 non-persisters; test: qPCR of gDNA crosslinked in vitro; format: biochemical, Escherichia coli; settings: MMC 500 μg/mL (1.5 mM)

## CO[C@@]12[C@H](COC(N)=O)C3=C(C(=O)C(C)=C(N)C3=O)N1C[C@@H]1N[C@@H]12 [MMC, mitomycin C]
[1]; Non-persisters, murB
  Ct (after MMC): 14.20 ± 0.39
[1]; Non-persisters, rrsG
  Ct (after MMC): 10.57 ± 0.35
[1]; Persisters, murB
  Ct (after MMC): 15.00 ± 1.24
[1]; Persisters, rrsG
  Ct (after MMC): 10.74 ± 1.10
[2]; murB
  Ct (after MMC): 21.18 ± 0.37
[2]; rrsG
  Ct (after MMC): 17.48 ± 0.01
